{
  "sequences": {"note": "Chains of the proteins cited; added tags and fusions are not shown.", "UniProt Q10589": "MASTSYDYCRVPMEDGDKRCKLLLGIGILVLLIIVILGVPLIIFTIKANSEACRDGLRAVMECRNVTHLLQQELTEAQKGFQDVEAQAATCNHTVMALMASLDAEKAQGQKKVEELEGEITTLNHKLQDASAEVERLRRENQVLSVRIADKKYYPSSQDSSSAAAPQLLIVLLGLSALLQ", "UniProt P03165": "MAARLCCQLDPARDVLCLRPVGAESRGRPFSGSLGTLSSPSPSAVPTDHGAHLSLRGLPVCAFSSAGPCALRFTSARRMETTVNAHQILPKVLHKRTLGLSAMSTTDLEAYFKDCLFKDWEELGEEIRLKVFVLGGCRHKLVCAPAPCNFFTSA"},
  "source": "paper PMC4484258",
  "molecular_target": "pBIND-BST-2 IHA (BST-2 fused to the GAL4 DNA-binding domain) (human) (UniProt Q10589)",
  "test": "two-hybrid; CheckMate mammalian two-hybrid in hepatic L02 cells: pBIND-BST-2 IHA, pACT-HBx and pG5luc, 500 ng each; firefly luciferase normalised by Renilla luciferase after 48 h",
  "note": "No constants are given. Whether binding was seen depends on the method and setting. Some entries that bind do so weakly or less than the wild type.",
  "data": [
    {"substance": "pACT-HBx (HBx fused to the VP16 activation domain) (from UniProt P03165 1-154)", "values": [
      {"measurement": "binding", "value": "binds"}
    ]}
  ]
}
